From doi:10.1101/278911
Results are given in words; binding and its absence hold for the method and conditions named. Binding seen in cells or lysates may run through a third protein. Some binding calls cover weakened binding; strength is not graded here.

Amino acid sequences for entries named in this document (tags omitted).
UniProt Q09137: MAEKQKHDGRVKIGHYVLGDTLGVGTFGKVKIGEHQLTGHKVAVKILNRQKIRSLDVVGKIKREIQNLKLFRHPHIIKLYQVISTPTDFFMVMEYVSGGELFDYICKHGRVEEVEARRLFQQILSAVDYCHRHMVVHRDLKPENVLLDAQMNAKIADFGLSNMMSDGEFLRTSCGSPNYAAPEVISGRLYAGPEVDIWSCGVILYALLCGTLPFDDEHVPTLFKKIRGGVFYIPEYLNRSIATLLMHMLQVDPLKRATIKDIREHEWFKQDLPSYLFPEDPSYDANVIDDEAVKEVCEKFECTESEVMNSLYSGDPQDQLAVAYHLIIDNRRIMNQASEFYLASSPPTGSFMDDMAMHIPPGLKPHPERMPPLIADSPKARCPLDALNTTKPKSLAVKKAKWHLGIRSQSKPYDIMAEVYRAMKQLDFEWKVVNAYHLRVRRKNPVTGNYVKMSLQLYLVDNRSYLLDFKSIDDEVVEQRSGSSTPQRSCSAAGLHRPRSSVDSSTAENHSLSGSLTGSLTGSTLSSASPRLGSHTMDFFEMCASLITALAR
UniProt P54645: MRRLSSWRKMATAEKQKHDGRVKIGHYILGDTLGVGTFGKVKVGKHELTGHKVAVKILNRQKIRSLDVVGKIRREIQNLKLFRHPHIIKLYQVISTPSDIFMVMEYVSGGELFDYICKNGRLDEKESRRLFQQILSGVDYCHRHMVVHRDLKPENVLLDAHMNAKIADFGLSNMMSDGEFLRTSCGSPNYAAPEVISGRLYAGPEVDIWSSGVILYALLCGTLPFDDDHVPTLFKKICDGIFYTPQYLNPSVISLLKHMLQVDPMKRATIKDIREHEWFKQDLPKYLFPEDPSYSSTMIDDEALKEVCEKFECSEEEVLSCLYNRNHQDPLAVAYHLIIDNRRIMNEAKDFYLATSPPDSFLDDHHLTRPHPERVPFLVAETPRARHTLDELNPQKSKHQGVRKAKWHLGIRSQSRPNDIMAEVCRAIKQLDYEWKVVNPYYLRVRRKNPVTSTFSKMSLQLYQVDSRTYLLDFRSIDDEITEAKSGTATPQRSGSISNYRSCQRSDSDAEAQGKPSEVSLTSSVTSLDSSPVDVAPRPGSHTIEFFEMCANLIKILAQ

What was measured:
[1] = molecular target: AMP-activated protein kinase α2 subunit (rat (endogenous in cultured rat podocytes)) (UniProt Q09137); test: co-IP
[2] = molecular target: AMP-activated protein kinase α1 subunit (rat (endogenous in cultured rat podocytes)) (UniProt P54645); test: co-IP

binding [1]: binds
binding [2]: binds
B1: TRPC6 channel (protein, UniProt Q99N78 1-930)
chain: MSQSPGFVTRRGGSPKAAPGAGARRNESQDYLLMDELGDDGYPQLQQPPYGYYPSFRGNENRLTHRRQTVLREKGRRLANRGPAYMFNDHSTSLSIEEERFLDAAEYGNIPVVRKMLEECLSLNVNCVDYMGQNALQLAVANEHLEITELLLKKENLSRVGDALLLAISKGYVRIVEAILNHPAFAEGKRLATSPSQSELQQDDFYAYDEDGTRFSHDVTPIILAAHCQEYEIVHTLLRKGARIERPHDYFCKCTECSQKQKHDSFSHSRSRINAYKGLASPAYLSLSSEDPVMTALELSNELAVLANIEKEFKNDYRKLSMQCKDFVVGLLDLCRNTEEVEAILNGDAETRQPGDLARPNLSRLKLAIKYEVKKFVAHPNCQQQLLSIWYENLSGLRQQTMAVKFLVVLAVAIGLPFLALIYWCAPCSKMGKILRGPFMKFVAHAASFTIFLGLLVMNAADRFEGTKLLPNETSTDNARQLFRMKTSCFSWMEMLIISWVIGMIWAECKEIWTQGPKEYLFELWNMLDFGMLAIFAASFIARFMAFWHASKAQSIIDANDTLKDLTKVTLGDNVKYYNLARIKWDPTDPQIISEGLYAIAVVLSFSRIAYILPANESFGPLQISLGRTVKDIFKFMVIFIMVFVAFMIGMFNLYSYYIGAKQNEAFTTVEESFKTLFWAIFGLSEVKSVVINYNHKFIENIGYVLYGVYNVTMVIVLLNMLIAMINSSFQEIEDDADVEWKFARAKLWFSYFEEGRTLPVPFNLVPSPKSLLYLLLKFKKWMSELIQGHKKGFQEDAEMNKRNEEKKFGILGSHEDLSKFSLDRNQLAHNKQSSTRSSEDFHLNSFSNPPRQYQKIMKRLIKRYVLQAQIDKESDEVNEGELKEIKQDISSLRYELLEEKSQNTEDLAELIRKLGERLSLESKQEESRR
